Tested on: aldosterone + salt treated rats
Test: Assay C further aldosterone infusion study: body weight, ventricle weights, tibia length (myocardial hypertrophy)
Assay type: in vivo, rat
Source text: Assay C: Further in vivo Aldosterone Infusion Study The procedure of Assay B was expanded upon in a further study. […] Myocardial tissue from animals in each treatment group was examined after 7, 14, or 30 days of treatment. […] Lesions were preceded by the expression and progressive upregulation of proinflammatory molecules. […] Male Sprague-Dawley rats, weighing 230 to 250 g, (Harlan Sprague-Dawley Industries, Indianapolis, Ind.) were housed in a room 12-hours light/12-hours dark daily cycle at an ambient temperature of 22±1° C. (n=96). Animals were allowed one week to adjust after arrival and had free access to TEKLAD 22/5 rodent diet (Harlan TEKLAD, Madison, Wis.) and tap water until the initiation of the experiment. Prior to surgery the animals were individually weighed and placed in one of the following groups: […] Potassium chloride supplementation was added to the saline solution in order to prevent the potential hypokalemia associated with aldosterone excess. […] Louis, Mo.) was inserted subcutaneously at the nape of the neck. Aldosterone was administered at a dose of […]. […] Animals were sacrificed from each group (n=8-13) after 7, 14, or 30 days of treatment. Animals to be sacrificed after 7 or 14 days of treatment were uninephrectomized and implanted with an Alzet minipump. Animals treated for 30 days were uninephrectomized, fitted for Alzet minipumps, and implanted with radio telemetry units (model#TA11PA-C40, Data Sciences Inc., St. Paul, Minn.) according to the following procedure. […] The surgery site was clipped, scrubbed with nolvasan, and sprayed with betadine. A rostral-caudal incision was made through the skin from the base of the rib cage to the pubic region using a #11 scalpel blade. A second incision was made through the muscles of the abdominal wall to expose the peritoneal cavity. […] Organs were carefully displaced with tissue retractors in order to expose the abdominal aorta. […]

## C[C@]12CCC(=O)C=C1CC[C@@H]1[C@@H]2[C@@H](O)C[C@]2(C=O)[C@@H](C(=O)CO)CC[C@@H]12 [aldosterone]
Table 9.12, 14-day protocol, group Mean
  Final Body Weight: 270 g
Table 9.12, 14-day protocol, individual rats, listed as Aldosterone + salt
  Final Body Weight: 290 g
Table 9.13, 30-day protocol, eplerenone 100 mg/kg/day, individual rats, listed as Aldosterone + salt
  Final Body Weight: 290 g

Reference: patent publication US20030162759A1, “Aldosterone blocker therapy to prevent or treat inflammation-related disorders” (priority 2000, published 2003)
